Where a name gives a salt, the structure may show the parent alone. ± gives the standard deviation of the averaged measurements. The list shows a part of the results. Repeats are few or missing, and single values can be far off.
System: RAW 264.7
Assay: cell viability (MTT) relative to vehicle control; higher = more viable cells
Conditions: stimulus: HMGB1 5 ug/ml, 18 h
[1] = compound concentration: 1 ug/ml

| SMILES | cell viability (compound concentration: 3 uM) | cell viability [1] |
| --- | --- | --- |
| COc1c(C)c2c(c(O)c1C/C=C(\C)CCC(=O)OCCN1CCOCC1)C(=O)OC2 [Mycophenolate mofetil] | 44.6% | – |
| CN1C(C(=O)Nc2ccccn2)=C(O)c2ccccc2S1(=O)=O | 100% | – |
| CN1C(C(=O)Nc2ccccn2)=C(O)c2ccccc2S1(=O)=O [Piroxicam] | 99.6 ± 7.8% | – |
| NCCS | 109% | – |
| NCCS [Cysteamine hydrochloride] | 110% | – |
| COCCOC(=O)C1=C(C)NC(C)=C(C(=O)OC(C)C)C1c1cccc([N+](=O)[O-])c1 (centres undefined) [Nimodipine] | 103 ± 9.9% | – |
| COCCOC(=O)C1=C(C)NC(C)=C(C(=O)OC(C)C)C1c1cccc([N+](=O)[O-])c1 (centres undefined) | 97.7 ± 4.4% | – |
| COC(=O)CCc1ccc(OCC(O)CNC(C)C)cc1 (centres undefined) | 102% | – |
| COC(=O)CCc1ccc(OCC(O)CNC(C)C)cc1 (centres undefined) [Esmolol hydrochloride] | 95.3% | – |
| COC(=O)CCc1ccc(OCC(O)CNC(C)C)cc1 (centres undefined) [Esmolol] | 99% | – |
| CC(N)(Cc1ccc(O)cc1)C(=O)O (racemic) [DL-alpha-Methyl-p-tyrosine] | 112% | – |
| NC(=O)OCC(O)COc1ccc(Cl)cc1 (centres undefined) [Chlorphensin carbamate] | 115% | – |
| CC1(C)S[C@@H]2[C@H](NC(=O)[C@H](N)c3ccccc3)C(=O)N2[C@H]1C(=O)OC1OC(=O)c2ccccc21 (some centres undefined) [Talampicillin hydrochloride] | 98.6% | – |
| Oc1cc(O)c2c(c1)O[C@H](c1ccc(O)c(O)c1)[C@@H](O)C2 (racemic) [Catechin-(+,-) hydrate] | 95.8% | – |
| CC1(C)[C@@H](O)CC[C@]2(C)[C@H]3C(=O)C=C4[C@@H]5C[C@@](C)(C(=O)O)CC[C@]5(C)CC[C@@]4(C)[C@]3(C)CC[C@@H]12 [Enoxolone] | – | 86% |
| CC1(C)[C@@H](O)CC[C@]2(C)[C@H]3C(=O)C=C4[C@@H]5C[C@@](C)(C(=O)O)CC[C@]5(C)CC[C@@]4(C)[C@]3(C)CC[C@@H]12 | 112% | – |
| COc1ccc2c(c1)c(CC(=O)O)c(C)n2Cc1ccc(Cl)cc1 [1-(4-Chlorobenzyl)-5-methoxy-2-methylindole-3-acetic acid] | 97.7% | – |
| C[C@]12CCC(=O)C=C1C=C[C@@H]1[C@@H]2CC[C@@]2(C)[C@H]1CC[C@@]21CCC(=O)O1 [Canrenone] | 85.6 ± 16% | – |
| C[C@]12CCC(=O)C=C1C=C[C@@H]1[C@@H]2CC[C@@]2(C)[C@H]1CC[C@@]21CCC(=O)O1 | 105% | – |
| COC(=O)[C@@H](N)Cc1ccc(O)c(O)c1 [L-3,4-Dihydroxyphenylalanine methyl ester hydrochloride] | 114% | – |
| Cc1c(NC(C)C)c(=O)n(-c2ccccc2)n1C [Isopyrin hydrochloride] | 135% | – |
| Cc1c(NC(C)C)c(=O)n(-c2ccccc2)n1C | 110% | – |
| COc1cccc(N(C)C(=S)Oc2ccc3c(c2)CCCC3)n1 [Liranaftate] | 132% | – |
| NCCc1cc[nH]n1 [Betazole hydrochloride] | 91.3% | – |
| CCCNC(C)C(=O)Nc1c(C)csc1C(=O)OC (centres undefined) [Articaine hydrochloride] | 78% | – |
| COc1cc(/C=C(\C#N)C(=O)c2ccc(O)c(O)c2)cc(I)c1O [I-OMe-Tyrphostin AG 538] | 119% | – |
| NC(Cc1cnc[nH]1)C(=O)NC(CO)C(=O)O (centres undefined) | – | 89.9% |

Some values from the list.
COc1cccc(N(C)C(=S)Oc2ccc3c(c2)CCCC3)n1 [Liranaftate] – cell viability (compound concentration: 3 uM): 132%
COc1c(C)c2c(c(O)c1C/C=C(\C)CCC(=O)OCCN1CCOCC1)C(=O)OC2 [Mycophenolate mofetil] – cell viability (compound concentration: 3 uM): 44.6%

Later entries:

| SMILES | cell viability (compound concentration: 3 uM) | cell viability [1] |
| --- | --- | --- |
| CC(C[N+](C)(C)C)OC(N)=O (stereo not drawn) [Carbamyl-beta-methylcholine] | 101% | – |
| CC(C[N+](C)(C)C)OC(N)=O (centres undefined) | 108% | – |
| CC(C[N+](C)(C)C)OC(N)=O (centres undefined) [Bethanechol chloride] | 97.4 ± 5.6% | – |
| NCCC(O)(P(=O)(O)O)P(=O)(O)O [Pamidronic acid] | 106% | – |
| N[C@@H](Cc1c[nH]cn1)C(=O)O [L-Histidine hydrochloride] | 102% | – |
| CC(=O)Oc1cc(OC(C)=O)c2c(=O)cc(-c3ccc(OC(C)=O)c(OC(C)=O)c3)oc2c1 | – | 95.4% |
| Cc1cn([C@H]2C[C@H](N=[N+]=[N-])[C@@H](CO)O2)c(=O)[nH]c1=O | 103% | – |
| Cc1cn([C@H]2C[C@H](N=[N+]=[N-])[C@@H](CO)O2)c(=O)[nH]c1=O [Zidovudine, AZT] | 85.1% | – |
| Cc1cn([C@H]2C[C@H](N=[N+]=[N-])[C@@H](CO)O2)c(=O)[nH]c1=O [3'-Azido-3'-deoxythymidine] | 103 ± 8% | – |
| COc1ccc([C@@H]2Sc3ccccc3N(CCN(C)C)C(=O)[C@@H]2OC(C)=O)cc1 | 98.7% | – |
| COc1ccc([C@@H]2Sc3ccccc3N(CCN(C)C)C(=O)[C@@H]2OC(C)=O)cc1 [Diltiazem] | 102% | – |
| COc1ccc([C@@H]2Sc3ccccc3N(CCN(C)C)C(=O)[C@@H]2OC(C)=O)cc1 [Diltiazem hydrochloride] | 106 ± 2.8% | – |
| CN(C)CCN(Cc1ccc(Cl)cc1)c1ccccn1 | 107% | – |
| CN(C)CCN(Cc1ccc(Cl)cc1)c1ccccn1 [Chloropyramine hydrochloride] | 101% | – |
| NS(=O)(=O)Cc1noc2ccccc12 [Zonisamide] | 105 ± 5.1% | – |
| CC(C)[C@@H](C)/C=C/[C@@H](C)[C@H]1CC[C@H]2/C(=C/C=C3\C[C@@H](O)CC[C@@H]3C)CCC[C@]12C [dihydrotachysterol] | – | 127% |
| COc1ccc2c(c1)C(=O)N(CCc1ccc(S(=O)(=O)NC(=O)NC3CCCCC3)cc1)C(=O)C2(C)C [Gliquidone] | 66.5% | – |
| CCCCCCCCCCOc1cc2c(O)c(C(=O)OCC)cnc2cc1OCC | 109% | – |
| CCCCC1C(=O)N(c2ccccc2)N(c2ccccc2)C1=O [Phenylbutazone] | 94.4 ± 12% | – |
| CCCCC1C(=O)N(c2ccccc2)N(c2ccccc2)C1=O | 111% | – |
| N=C(N)SCCN [2-(2-Aminoethyl)isothiourea dihydrobromide] | 104% | – |
| N=C(N)N1CCc2ccccc2C1 | 113% | – |
| N=C(N)N1CCc2ccccc2C1 [Debrisoquin] | 106% | – |
| N=C(N)N1CCc2ccccc2C1 [Debrisoquin sulfate] | 94.7 ± 23% | – |
| CC1=CC(=O)c2ccccc2C1=O | 103% | – |
| CC(=O)/N=c1/sc(S(N)(=O)=O)nn1C | 109% | – |
| CC(=O)/N=c1/sc(S(N)(=O)=O)nn1C [Methazolamide] | 77.9% | – |

Reference: the supplement of paper PMC3682954
